In publication PMC10783506:
These are yes or no findings as the source states them, for the method shown.

Target: human LGP2 (laboratory of genetics and physiology 2), E. coli expressed (human) (UniProt Q96C10)
Test: SEC; gel filtration on Superose 6 to assess the oligomeric state, elution compared with standard proteins; no RNA; both purified

B1: human LGP2 (laboratory of genetics and physiology 2), E. coli expressed (protein, UniProt Q96C10 1-678)
chain: MELRSYQWEVIMPALEGKNIIIWLPTGAGKTRAAAYVAKRHLETVDGAKVVVLVNRVHLVTQHGEEFRRMLDGRWTVTTLSGDMGPRAGFGHLARCHDLLICTAELLQMALTSPEEEEHVELTVFSLIVVDECHHTHKDTVYNVIMSQYLELKLQRAQPLPQVLGLTASPGTGGASKLDGAINHVLQLCANLDTWCIMSPQNCCPQLQEHSQQPCKQYNLCHRRSQDPFGDLLKKLMDQIHDHLEMPELSRKFGTQMYEQQVVKLSEAAALAGLQEQRVYALHLRRYNDALLIHDTVRAVDALAALQDFYHREHVTKTQILCAERRLLALFDDRKNELAHLATHGPENPKLEMLEKILQRQFSSSNSPRGIIFTRTRQSAHSLLLWLQQQQGLQTVDIRAQLLIGAGNSSQSTHMTQRDQQEVIQKFQDGTLNLLVATSVAEEGLDIPHCNVVVRYGLLTNEISMVQARGRARADQSVYAFVATEGSRELKRELINEALETLMEQAVAAVQKMDQAEYQAKIRDLQQAALTKRAAQAAQRENQRQQFPVEHVQLLCINCMVAVGHGSDLRKVEGTHHVNVNPNFSNYYNVSRDPVVINKVFKDWKPGGVISCRNCGEVWGLQMIYKSVKLPVLKVRSMLLETPQGRIQAKKWSRVPFSVPDFDFLQHCAENLSDLSLD
**Q.** Which binding does the source give for B1 here?
**A.** Its binding is “no binding”.
